# Data as given in patent US20180371460.
# Construct, isoform or probe ends are uncertain for at least one entry. Where cells or extracts were used, other partners may take part.
# Target: Human serum albumin (HSA) in human plasma, denatured (Homo sapiens) (UniProt P02768)
# Test: pull-down
# Conditions: selective pull-down from plasma; Tween 80 or Empigen BB with DTT; blank beads control; protein in an extract; single-stranded DNA
sequence,measurement,value
GCGCATACCAGCTTATTCAATTCGGATAGACAACATGGGGAAGAACAGTGTCTAGTCGTGGGTTGCTCTGTAAGATAGTAAGTGCAATCTCGGC [36],binding result,binds
